Values from PubChem BioAssay AID652272 (Drosophila RNAi Screening Center, 2013).

Test: 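Finding fly genes that regulate Hedgehog signal transduction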 (primary screen)
Cells: Drosophila clone 8 (Cl8) cells
Knock-down reagent: long dsRNA against Drosophila genes
Read-out: 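Firefly light from a Hedgehog-responsive ptc promoter reporter and Renilla reference light, both read on a plate reader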
Reading the numbers: firefly Hh reporter signal: higher = more ptc reporter light; Renilla reference signal: higher = more Renilla control light
Hit rule: 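Hit when the z-score averaged over two replicates is under -2 or over +3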
Meaning of the calls: active = hit: reporter lowered or raised; inactive = not a hit
The screen tested about 21,000 reagents; this is an unselected part of those with a known target gene and a result. Of all reagents, 503 (2.4%) are marked active. 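Raw plate light values, not normalised; calls rest on replicate z-scores that were not deposited; hits include reporter decreases as well as increases.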 Names joined by + are all predicted targets of the reagent. The record does not give: the amount of reagent, the time to read-out.

target gene	amplicon	firefly Hh reporter signal, replicate 1	firefly Hh reporter signal, replicate 2	firefly Hh reporter signal, replicate 3	Renilla reference signal, replicate 1	Renilla reference signal, replicate 2	call
Hsp23	DRSC11188	1.10e5	45723		4324	2229	inactive
Ufl1	DRSC12527	1.24e5	82921		4614	3243	inactive
CG31550	DRSC12197	65223	1.13e5		2577	2896	inactive
CG31550	DRSC12198	1.30e5	1.13e5		5177	4250	inactive
CG33460	DRSC05570	1.17e5	2.43e5		3233	10178	inactive
ND5 (retired record)	DRSC21281	84864	2.70e5		1043	11699	inactive
stx	DRSC18442	45264	27385		2989	1240	active
stx	DRSC18443	52272	1.10e5		1644	4551	inactive
CG8289	DRSC20101	1.05e5	1.02e5		2765	2245	inactive
CG31342	DRSC15349	1.67e5	86512		6669	3748	inactive
CG31342	DRSC16246	70656	91784		1584	2314	inactive
CG17300	DRSC10260	52843	41029	45648	3733	3122	inactive
Toll-4	DRSC03458	65352	59619		1883	5017	inactive
CG34025	DRSC08014	96712	1.99e5		2621	8561	inactive
yellow-f	DRSC15348	97528	68444		2098	1620	inactive
Elovl7	DRSC15452	76278	85328		2856	4073	inactive
eIF3j	DRSC06107	95832	43011		3801	1553	inactive
Cfp1	DRSC18128	43453	1.55e5		1251	6336	inactive
CG44774	DRSC18342	77929	1.25e5		3090	5827	inactive
CG6294 + CG6299	DRSC19980	61221	1.68e5		1818	7060	inactive
SCCRO3	DRSC06359	63276	51091		1773	3721	inactive
cold	DRSC00538	1.07e5	1.27e5		4832	5417	inactive
Nil	DRSC15953	6.37e5	89785		42493	2619	inactive
QIL1	DRSC10888	75584			4581	3152	inactive
ND-42	DRSC16754	96362	79897		3720	2658	inactive
CG16772	DRSC02516	1.06e5	66592		2427	6437	inactive
CG34345	DRSC02126	72149	61241		1715	5915	inactive
eys	DRSC00113	3.96e5	1.14e5		20937	4679	inactive
eys	DRSC00402	93204	99669		2393	2564	inactive
eys	DRSC00403	1.09e5	1.06e5		2554	2124	inactive
eys	DRSC00695	1.76e5	74009		6297	3222	inactive
CG31093	DRSC15689	5.09e5	70944		25160	2135	inactive
beat-IIIa	DRSC01575	1.29e5	2.89e5		3788	13456	inactive
beat-IIIa	DRSC01577	99979	2.14e5		2969	10513	inactive
beat-IIIa	DRSC02178	1.27e5	77366		3037	6097	inactive
Mes2	DRSC11593	2.06e5			3592		inactive
Mes2	DRSC11632	1.02e5	5.64e5	75224	3024	28036	inactive

3 of these entries, set out differently:
{"target gene":"SCCRO3","amplicon":"DRSC06359","firefly Hh reporter signal, replicate 1":63276,"firefly Hh reporter signal, replicate 2":51091,"Renilla reference signal, replicate 1":1773,"Renilla reference signal, replicate 2":3721,"call":"inactive"}
{"target gene":"cold","amplicon":"DRSC00538","firefly Hh reporter signal, replicate 1":1.07e5,"firefly Hh reporter signal, replicate 2":1.27e5,"Renilla reference signal, replicate 1":4832,"Renilla reference signal, replicate 2":5417,"call":"inactive"}
{"target gene":"Nil","amplicon":"DRSC15953","firefly Hh reporter signal, replicate 1":6.37e5,"firefly Hh reporter signal, replicate 2":89785,"Renilla reference signal, replicate 1":42493,"Renilla reference signal, replicate 2":2619,"call":"inactive"}

The list goes on:
target gene	amplicon	firefly Hh reporter signal, replicate 1	firefly Hh reporter signal, replicate 2	firefly Hh reporter signal, replicate 3	Renilla reference signal, replicate 1	Renilla reference signal, replicate 2	call
CG30440	DRSC04775	1.28e5	3.26e5		2843	12713	inactive
CG30440	DRSC04845	1.13e5	62151		2818	5350	inactive
CG30440	DRSC04855	58152	40449		1593	4092	inactive
ChLD3	DRSC02640	1.53e5	56476		3932	4906	inactive
CG34054	DRSC05277	1.64e5	3.43e5		4272	13835	inactive
Gp93	DRSC15827	96809	87059		1888	2805	inactive
RpS10a	DRSC14161	1.25e5	94176		2864	2705	inactive
Ercc1	DRSC07424	33075	34768		2355	2011	inactive
pirk	DRSC04269	87350	64898		2393	5843	inactive
asRNA:CR43259 + CG31089	DRSC15934	6.54e5	1.04e5		32320	3203	inactive
CG18598	DRSC15356	5.76e5	68128		27552	1681	inactive
Ddx56	DRSC20567	45657	1.89e5		1505	9783	inactive
CG1791	DRSC18141	73698	54579		1712	1498	inactive
CG14756	DRSC06491	96786	37789		2477	3467	inactive
ND6 (retired record)	DRSC21271	1.85e5	8.76e5	3.52e5	6038	5376	inactive
stau	DRSC07698	1.51e5	1.19e5		6848	4640	inactive
Alg-2	DRSC07799	78745	39433		3090	3078	inactive
CkIIbeta2	DRSC07361	54048	43878		1993	4509	inactive
CG15446	DRSC20518	1.05e5	2.01e5		4534	9127	inactive
Rpn7	DRSC16841	25385	19204		2643	2000	active
